The nature of this experiment: qHTS Assay to Find Inhibitors of Chronic Active B-Cell Receptor Signaling. Conditions: ABC-DLBCL IkBa-CBG/CBR reporter, luminescence ratio (green luciferase fused to IkBa over red control in TMD8 lymphoma cells), 4 h. The essentials:
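TMD8 ABC-DLBCL cells carrying doxycycline-inducible green luciferase fused to IkappaBalpha plus unfused red luciferase were exposed to compounds (up to 46 uM) for 4 hrs at 37C. Activity came from the overlap-corrected green/red luminescence ratio.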
In general terms: In qHTS, concentration-response curves come from the screen itself.

Where [1] appears, read: measured here: CBR red luminescence, cell number.
[2] abbreviates: measured here: IkBa-CBG green luminescence.

Some of the results follow. The main result of the screen is listed elsewhere. These columns were measured beside it and carry no call. The list favours compounds with an active or inconclusive main result. Potencies come from curve fits of mixed quality, noted in brackets.

As for `Clc1ccc(CSc2ncnc3nc[nH]c23)cc1`, the half-maximal activity concentration (AC50) under setting [1] is 0.651 µM [rising, full curve, poor fit].

As to `N#Cc1c(NC(=O)CSc2nnc(-c3ccco3)n2-c2ccccc2)sc2c1CCC2`, the AC50 reads like this: under setting [1], 29.1 µM [falling, single point]; under setting [2], 18.4 µM [rising, single point].

Take `CN1CC2CCCC3(C1)C(=O)NC1(CCCCC1)N=C23` (stereo not given): the half-maximal activity concentration (AC50) under setting [1] was 11.2 µM [falling, partial curve, poor fit].

As to `Cc1cc(=O)oc2cc(OCC3CC(c4ccccc4Cl)=NO3)ccc12` (stereo not given), the AC50 under setting [1] is 5.8 µM [rising, full curve] and the AC50 under setting [2] was 4.11 µM [falling, full curve].

For `Fc1ccc(COc2ccc(-c3nnco3)cc2)c(Cl)c1`, the concentration at half-maximal activity (AC50) under setting [1] is 17.8 µM [rising, partial curve, poor fit].

Take `COc1ccc(C)cc1NC(=O)Nc1ccc(Br)cn1`: the half-maximal activity concentration (AC50) under setting [1] was 0.0517 µM [rising, full curve, poor fit].

On to `Cn1nc(-c2ccccc2)c(-c2nc(-c3ccccc3Cl)no2)c1Cl`, for which, under setting [1], the half-maximal activity concentration (AC50) was 3.66 µM [rising, single point].

As for `Cc1nc2nc(SCC(=O)Nc3cccc(F)c3)[nH]c2cc1Br`, under setting [1], the concentration at half-maximal activity (AC50) was 1.58 µM [falling, full curve, poor fit].

Take `c1ccc2sc(-c3ccncc3)nc2c1`: under setting [1], the AC50 was 1.78 µM [rising, partial curve, poor fit].

In the case of `CCCCc1ccc(NS(=O)(=O)c2cccs2)cc1`, the concentration at half-maximal activity (AC50) under setting [1] was 7.08 µM [rising, partial curve, poor fit].

For the molecule `CC(=O)c1cc(F)c(N2CCN(C(=O)COc3ccccc3F)CC2)cc1C`, under setting [1], the AC50 was 2.91 µM [rising, partial curve, poor fit].

Consider `COc1cccc(OCc2nc(-c3ccc(Br)o3)no2)c1`, for which, under setting [1], the AC50 is 4.47 µM [rising, full curve, poor fit].

For `CCc1ccc(-c2nc(CSCC(=O)NCc3ccco3)c(C)o2)cc1`, the AC50 under setting [1] was 15.8 µM [falling, single point].

For `Cc1ccc(NC(=O)CN2C(=O)N/C(=C/c3ccccc3OCc3cccc(C(=O)O)c3)C2=O)cc1`, under setting [1], the AC50 was 7.94 µM [rising, partial curve].

Regarding `CC(C)Cc1cc(C(=O)NCc2cccs2)no1`, the AC50 under setting [1] is 16.4 µM [falling, partial curve].

As for `COc1ccc(COc2cc(-c3cccc(OC)c3)nc3ccc(NC(=O)c4ccc(N(C)C)cc4)cc23)cc1`, the AC50 was 29.1 µM [rising, single point] under setting [1] and 20.6 µM [falling, single point] under setting [2].

As to `COc1cc(/C=N/NC(=O)c2ccccc2Cl)ccc1Oc1ccc([N+](=O)[O-])cn1`, the AC50 under setting [1] was 11.2 µM [falling, single point].

The term AC50 denotes the concentration at which the activity in the assay is half-maximal.
